Our source for the binding values is publication PMC11391272.

No constants are given. Whether binding was seen depends on the method and setting. In cells and extracts the contact can be indirect. Some results given as binding are weak or reduced against the parent protein; the word gives no strength.

Assay [1] has as its target T1, YTH N6-methyladenosine RNA binding protein 2 (YTHDF2), endogenous (human (endogenous in the paper's human cell lines; line not stated for the co-IP)) (UniProt Q9Y5A9).
T1 sequence: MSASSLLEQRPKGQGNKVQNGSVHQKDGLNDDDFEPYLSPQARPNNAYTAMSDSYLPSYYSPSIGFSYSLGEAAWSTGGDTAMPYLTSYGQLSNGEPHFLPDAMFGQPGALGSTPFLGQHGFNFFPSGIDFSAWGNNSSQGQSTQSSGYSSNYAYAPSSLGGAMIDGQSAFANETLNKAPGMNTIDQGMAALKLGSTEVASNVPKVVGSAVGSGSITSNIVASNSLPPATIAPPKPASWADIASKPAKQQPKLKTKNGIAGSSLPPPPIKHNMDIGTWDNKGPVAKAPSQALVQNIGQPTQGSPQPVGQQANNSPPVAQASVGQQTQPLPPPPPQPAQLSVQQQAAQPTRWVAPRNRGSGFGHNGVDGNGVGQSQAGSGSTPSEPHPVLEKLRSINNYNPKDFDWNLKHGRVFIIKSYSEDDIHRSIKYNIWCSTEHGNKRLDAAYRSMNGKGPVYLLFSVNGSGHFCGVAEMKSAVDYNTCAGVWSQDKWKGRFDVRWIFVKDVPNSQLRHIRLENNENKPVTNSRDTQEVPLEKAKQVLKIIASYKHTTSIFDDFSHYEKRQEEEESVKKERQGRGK
The assay can be described thus: co-IP; endogenous proteins; POP1 precipitated with anti-POP1 antibody and protein G magnetic beads, or YTHDF2 precipitated; lysis buffer 150 mM NaCl, 10 mM HEPES, 1% NP-40, pH 7.4; 4 °C overnight; Western blot; POP1-YTHDF2 also tested after RIDA knock-down or STM2457 treatment (binding significantly reduced). For orientation: A western blot detects proteins with antibodies after separation by electrophoresis.

The target of assay [2] is T2, labeled POP1 (exogenous, transfected) (UniProt Q99575).
T2 sequence: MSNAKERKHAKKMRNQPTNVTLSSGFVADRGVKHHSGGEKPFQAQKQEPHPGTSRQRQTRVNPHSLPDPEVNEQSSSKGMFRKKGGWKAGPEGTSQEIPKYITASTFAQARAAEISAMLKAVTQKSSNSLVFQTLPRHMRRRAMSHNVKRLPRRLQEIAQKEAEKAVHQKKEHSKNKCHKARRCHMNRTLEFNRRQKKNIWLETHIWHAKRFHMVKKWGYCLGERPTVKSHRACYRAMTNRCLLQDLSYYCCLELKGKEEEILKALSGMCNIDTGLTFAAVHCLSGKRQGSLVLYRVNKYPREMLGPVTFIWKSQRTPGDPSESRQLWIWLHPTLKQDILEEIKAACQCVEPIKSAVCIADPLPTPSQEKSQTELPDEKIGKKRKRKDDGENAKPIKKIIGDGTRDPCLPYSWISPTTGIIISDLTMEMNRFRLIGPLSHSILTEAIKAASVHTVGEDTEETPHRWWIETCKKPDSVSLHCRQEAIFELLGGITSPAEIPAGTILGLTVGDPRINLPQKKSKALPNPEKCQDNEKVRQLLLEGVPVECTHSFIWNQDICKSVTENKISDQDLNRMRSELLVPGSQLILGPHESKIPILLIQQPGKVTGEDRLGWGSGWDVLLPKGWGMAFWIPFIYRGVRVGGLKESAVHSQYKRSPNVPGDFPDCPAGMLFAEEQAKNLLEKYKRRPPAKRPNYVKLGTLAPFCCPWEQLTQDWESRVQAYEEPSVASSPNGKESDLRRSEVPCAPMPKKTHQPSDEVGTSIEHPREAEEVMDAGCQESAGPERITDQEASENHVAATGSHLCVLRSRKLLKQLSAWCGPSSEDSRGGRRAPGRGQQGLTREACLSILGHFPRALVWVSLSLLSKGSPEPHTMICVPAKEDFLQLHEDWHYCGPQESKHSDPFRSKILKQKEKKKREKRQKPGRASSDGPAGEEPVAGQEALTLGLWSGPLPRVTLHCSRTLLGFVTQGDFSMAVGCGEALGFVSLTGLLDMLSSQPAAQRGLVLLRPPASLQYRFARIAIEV
The assay can be described thus: co-IP; exogenous: labeled POP1, YTHDF2 and RIDA transfected; the labels detected after enrichment; anti-Flag magnetic beads named in the methods; lysis buffer 150 mM NaCl, 10 mM HEPES, 1% NP-40, pH 7.4; Western blot.

B1: RIDA, endogenous (protein, UniProt P52758 1-137)
chain: MSSLIRRVISTAKAPGAIGPYSQAVLVDRTIYISGQIGMDPSSGQLVSGGVAEEAKQALKNMGEILKAAGCDFTNVVKTTVLLADINDFNTVNEIYKQYFKSNFPARAAYQVAALPKGSRIEIEAVAIQGPLTTASL
B1: in assay [1], the binding result is “binds”.

B2: labeled RIDA (exogenous, transfected) (protein, UniProt P52758 1-137)
chain: B1 chain
As to B2, the binding entry in assay [2] is “binds”.

B3: Processing of precursors 1 (POP1), endogenous (protein, UniProt Q99575 1-1024)
chain: T2 sequence
Turning to B3, the binding entry in assay [1] is listed as “binds”.
